Experimental data as given in US20100292147A1 (UNIVERSITY OF UTAH RESEARCH FOUNDATION, published 2010).
No constants are given. Whether binding was seen depends on the method and setting. Some results given as binding are weak or reduced against the parent protein; the word gives no strength.

How the values were obtained:
[1] = target: T1, HBD wt peptide (hepcidin binding domain of ferroportin with two arginines at each end); assay: preincubation with HBD, read out by Fpn-GFP internalization (FIG. 1C legend)
T1 sequence (peptide): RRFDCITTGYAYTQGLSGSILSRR

[2] = target: T1, HBD wt peptide (hepcidin binding domain of ferroportin with two arginines at each end); assay: binding to bead-immobilized HBD at different temperatures
[3] = target: T2, HBD peptide without the added arginines; assay: comparison of HBD with and without terminal arginines; method not described
T2 sequence (peptide): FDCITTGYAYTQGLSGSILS

[4] = target: T1, HBD wt peptide (hepcidin binding domain of ferroportin with two arginines at each end); assay: competition with I125-labeled hepcidin (10,000 cpm) on HBD-coated 96-well plate, 4 h room temperature, gamma counter (FIG. 7)
[5] = target: T1, HBD wt peptide (hepcidin binding domain of ferroportin with two arginines at each end); assay: competition on I-HBD bound in wells of a 96-well plate (FIG. 7A legend)
[6] = target: T1, HBD wt peptide (hepcidin binding domain of ferroportin with two arginines at each end); assay: binding to bead-immobilized HBD

binding [1]: binds
binding [2]: binds
binding [3]: binds
binding [4]: binds
binding [5]: binds
binding [6]: binds
Binder: DTHFPICIFCCGCCHRSKCGMCCKT (peptide, UniProt P81172 60-84, looked up) [hepcidin (hepcidin 25, native non-radioactive hepcidin)]
